# In patent US10039751B2, “Reversing intestinal inflammation by inhibiting retinoic acid metabolism” (THE BOARD OF TRUSTEES OF THE LELAND STANFORD JUNIOR …, priority 2011, dated 2018):
# At least one compound was matched to its structure with a doubt left.
# Tested on: APC^Min/+ mice
# Assay: Drug treatment of APC^Min/+ mice: survival, body weight, hematocrit, polyp/tumor count
# Conditions: 1500 ppm Celecoxib or 100 ppm Rosiglitazone in diet for 10 weeks, compared to base diet
compound,measurement,value
Cc1ccc(-c2cc(C(F)(F)F)nn2-c2ccc(S(N)(=O)=O)cc2)cc1 [Celecoxib],survival,markedly prolonged survival
